Experimental data: paper PMC12752627, “Discovery of a Potent and Selective TEAD Degrader with Durable Degradation Activity” (Advanced Science, 2025)
This continues a long series; more values of the same kind are listed elsewhere.

Tested on: 867 cancer cell lines
Assay: PRISM assay (barcoded cell line screening, 5 days);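 note: top test concentration 10 mM in eight-point dilution series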
Assay type: cell-based
Parameters: scale not given here
Description: The principle of the PRISM assay has been described elsewhere and was conducted as previously outlined by the PRISM team at the Broad Institute.^[ [14], [31] ^] In PRISM (MTS027) experiments, KG‐FP‐003 was tested across 867 different cancer cell lines. Cells were treated with eight concentration gradients, ranging from 4.6 nM to […], in triplicate dilutions over a period of five days. Each plate was treated with 20 µM bortezomib as a positive control and DMSO as a negative control. Three replicate experiments were performed for each compound. The resulting data were analyzed using GraphPad PRISM 9.5.

For `CNC(=O)c1cc2c(c(F)c1-c1c(Cl)c(F)cc3c1C[C@@](CN[C@H]1CC[C@H](C(=O)N4CCC(CC5CCN(C(=O)COc6ccc(N7CCC(=O)NC7=O)c(C)c6)CC5)CC4)CC1)(c1ccccc1)O3)[C@@H](O)[C@@H](C)C2` [KG-FP-003], the KG-FP-003-AUC (NCIH661_LUNG, PR500) was 0.37, the KG-FP-003-AUC (NCIH727_LUNG, PR500) was 1.00 and the KG-FP-003-AUC (NCIH747_LARGE_INTESTINE, PR500) was 0.86. It also gave a KG-FP-003-AUC (NCIH838_LUNG, PR500) of 0.74, a KG-FP-003-AUC (NCIH841_LUNG, PR500) of 0.90 and a KG-FP-003-AUC (NCIH1048_LUNG, PR500) of 1.00. It also gave a KG-FP-003-AUC (NCIH1092_LUNG, PR300) of 0.77, a KG-FP-003-AUC (NCIH1299_LUNG, PR500) of 0.90 and a KG-FP-003-AUC (NCIH1341_LUNG, PR300) of 0.98. It also gave a KG-FP-003-AUC (NCIH1355_LUNG, PR500) of 0.92, a KG-FP-003-AUC (NCIH1373_LUNG, PR500) of 0.99 and a KG-FP-003-AUC (NCIH1435_LUNG, PR500) of 1.00. For the same molecule, the KG-FP-003-AUC (NCIH1437_LUNG, PR500) was 0.87, the KG-FP-003-AUC (NCIH1563_LUNG, PR500) was 0.42 and the KG-FP-003-AUC (NCIH1568_LUNG, PR500) was 0.77. For the same molecule, the KG-FP-003-AUC (NCIH1573_LUNG, PR500) was 0.89, the KG-FP-003-AUC (NCIH1581_LUNG, PR500) was 1.00 and the KG-FP-003-AUC (NCIH1648_LUNG, PR500) was 0.99. It also gave a KG-FP-003-AUC (NCIH1650_LUNG, PR500) of 0.83, a KG-FP-003-AUC (NCIH1651_LUNG, PR500) of 1.00 and a KG-FP-003-AUC (NCIH1693_LUNG, PR500) of 0.63. It also gave a KG-FP-003-AUC (NCIH1703_LUNG, PR500) of 0.85, a KG-FP-003-AUC (NCIH1792_LUNG, PR500) of 0.99 and a KG-FP-003-AUC (NCIH1793_LUNG, PR500) of 1.00. The KG-FP-003-AUC (NCIH1838_LUNG, PR500) was 0.86, the KG-FP-003-AUC (NCIH1915_LUNG, PR500) was 0.91 and the KG-FP-003-AUC (NCIH1944_LUNG, PR500) was 0.99. The KG-FP-003-AUC (NCIH1975_LUNG, PR500) was 0.70, the KG-FP-003-AUC (NCIH2004RT_SOFT_TISSUE, PR300) was 0.59 and the KG-FP-003-AUC (NCIH2009_LUNG, PR500) was 0.99. It also gave a KG-FP-003-AUC (NCIH2023_LUNG, PR500) of 0.79, a KG-FP-003-AUC (NCIH2030_LUNG, PR500) of 0.92 and a KG-FP-003-AUC (NCIH2052_PLEURA, PR500) of 0.63. It also gave a KG-FP-003-AUC (NCIH2087_LUNG, PR500) of 0.86, a KG-FP-003-AUC (NCIH2110_LUNG, PR500) of 0.97 and a KG-FP-003-AUC (NCIH2122_LUNG, PR500) of 0.79. The KG-FP-003-AUC (NCIH2126_LUNG, PR500) was 0.91, the KG-FP-003-AUC (NCIH2170_LUNG, PR500) was 0.98 and the KG-FP-003-AUC (NCIH2171_LUNG, PR300) was 0.85. It also gave a KG-FP-003-AUC (NCIH2172_LUNG, PR500) of 0.77, a KG-FP-003-AUC (NCIH2196_LUNG, PR300) of 1.00 and a KG-FP-003-AUC (NCIH2228_LUNG, PR500) of 0.89. For the same molecule, the KG-FP-003-AUC (NCIH2347_LUNG, PR500) was 0.54, the KG-FP-003-AUC (NCIH2444_LUNG, PR500) was 0.54 and the KG-FP-003-AUC (NCIH2452_PLEURA, PR500) was 1.00. The KG-FP-003-AUC (NCO2_HAEMATOPOIETIC_AND_LYMPHOID_TISSUE, PR300) was 0.91, the KG-FP-003-AUC (NIHOVCAR3_OVARY, PR300) was 0.59 and the KG-FP-003-AUC (NOMO1_HAEMATOPOIETIC_AND_LYMPHOID_TISSUE, PR300) was 0.91. For the same molecule, the KG-FP-003-AUC (NOZ_LIVER, PR300) was 0.86, the KG-FP-003-AUC (NP2_CENTRAL_NERVOUS_SYSTEM, PR300) was 0.99 and the KG-FP-003-AUC (NP3_CENTRAL_NERVOUS_SYSTEM, PR300) was 0.98. The KG-FP-003-AUC (NP5_CENTRAL_NERVOUS_SYSTEM, PR300) was 0.78, the KG-FP-003-AUC (NUDHL1_HAEMATOPOIETIC_AND_LYMPHOID_TISSUE, PR300) was 0.87 and the KG-FP-003-AUC (NUGC3_STOMACH, PR500) was 0.60. It also gave a KG-FP-003-AUC (NUGC4_STOMACH, PR500) of 0.99, a KG-FP-003-AUC (NZOV9_OVARY, PR300) of 0.81 and a KG-FP-003-AUC (OACM51_OESOPHAGUS, PR300) of 1.00. For the same molecule, the KG-FP-003-AUC (OAW42_OVARY, PR500) was 0.94, the KG-FP-003-AUC (OC314_OVARY, PR500) was 0.40 and the KG-FP-003-AUC (OC316_OVARY, PR500) was 0.56. For the same molecule, the KG-FP-003-AUC (OCIAML2_HAEMATOPOIETIC_AND_LYMPHOID_TISSUE, PR300) was 0.80, the KG-FP-003-AUC (OCIAML5_HAEMATOPOIETIC_AND_LYMPHOID_TISSUE, PR300) was 0.88 and the KG-FP-003-AUC (OCIC4P_OVARY, PR300) was 0.91. For the same molecule, the KG-FP-003-AUC (OCIC5X_OVARY, PR300) was 0.61, the KG-FP-003-AUC (OCILY3_HAEMATOPOIETIC_AND_LYMPHOID_TISSUE, PR300) was 0.86 and the KG-FP-003-AUC (OCILY18_HAEMATOPOIETIC_AND_LYMPHOID_TISSUE, PR300) was 0.79. For the same molecule, the KG-FP-003-AUC (OCILY19_HAEMATOPOIETIC_AND_LYMPHOID_TISSUE, PR300) was 0.91, the KG-FP-003-AUC (OCILY132_HAEMATOPOIETIC_AND_LYMPHOID_TISSUE, PR300) was 0.71 and the KG-FP-003-AUC (OCIM1_HAEMATOPOIETIC_AND_LYMPHOID_TISSUE, PR300) was 0.92. The KG-FP-003-AUC (OCIP5X_OVARY, PR300) was 0.79, the KG-FP-003-AUC (OCUG1_BILIARY_TRACT, PR300) was 0.87 and the KG-FP-003-AUC (OE19_OESOPHAGUS, PR500) was 0.98. It also gave a KG-FP-003-AUC (OE21_OESOPHAGUS, PR500) of 0.75, a KG-FP-003-AUC (OE33_OESOPHAGUS, PR500) of 0.89 and a KG-FP-003-AUC (ONCODG1_OVARY, PR500) of 0.69. It also gave a KG-FP-003-AUC (ONDA9_CENTRAL_NERVOUS_SYSTEM, PR300) of 0.96, a KG-FP-003-AUC (ONS76_CENTRAL_NERVOUS_SYSTEM, PR300) of 0.64 and a KG-FP-003-AUC (ONS76_CENTRAL_NERVOUS_SYSTEM, PR500) of 0.64. For the same molecule, the KG-FP-003-AUC (OSC20_UPPER_AERODIGESTIVE_TRACT, PR300) was 0.49, the KG-FP-003-AUC (OSRC2_KIDNEY, PR500) was 0.91 and the KG-FP-003-AUC (OUMS23_LARGE_INTESTINE, PR500) was 0.55. For the same molecule, the KG-FP-003-AUC (OV7_OVARY, PR500) was 0.58, the KG-FP-003-AUC (OV17R_OVARY, PR300) was 0.79 and the KG-FP-003-AUC (OV56_OVARY, PR500) was 0.75. The KG-FP-003-AUC (OVCAR8_OVARY, PR500) was 0.52, the KG-FP-003-AUC (OVISE_OVARY, PR500) was 0.52 and the KG-FP-003-AUC (OVK18_OVARY, PR500) was 0.99. For the same molecule, the KG-FP-003-AUC (OVKATE_OVARY, PR300) was 0.79, the KG-FP-003-AUC (OVTOKO_OVARY, PR500) was 0.85 and the KG-FP-003-AUC (OZ_BILIARY_TRACT, PR300) was 0.74. It also gave a KG-FP-003-AUC (P12ICHIKAWA_HAEMATOPOIETIC_AND_LYMPHOID_TISSUE, PR300) of 0.75, a KG-FP-003-AUC (PA1_OVARY, PR300) of 0.89 and a KG-FP-003-AUC (PACADD119_PANCREAS, PR300) of 0.98. The KG-FP-003-AUC (PACADD137_PANCREAS, PR300) was 0.98 and the KG-FP-003-AUC (PACADD161_PANCREAS, PR300) was 0.60.
